Measurements published in US20210332360.
Negatives hold for the conditions tested. Protein sequences can lack the tags named with them.

Assays:
Experiment in all cases: binding assay
Conditions in all cases: after the 5' primer region all dT replaced by 4 (alpha-D-mannose-triazole-modified C8-alkyne-dU); natural dC; lectin array 0.04-400 nM; only ConA gave strong signal; purified native protein; protein details: RayBiotech Lectin Array 40; label: particle-displayed, or 5'-biotinTEG; single-stranded DNA; variant of 3-1
[1] = molecular target: T1, Euonymus europaeus lectin (EEL) (Euonymus europaeus) (UniProt B3SV73)
T1 sequence (looked up, limits assumed): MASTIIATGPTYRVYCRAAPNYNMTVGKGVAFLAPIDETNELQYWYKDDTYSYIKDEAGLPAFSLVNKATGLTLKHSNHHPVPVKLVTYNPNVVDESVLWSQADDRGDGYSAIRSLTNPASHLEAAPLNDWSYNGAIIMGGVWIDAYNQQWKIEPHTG

[2] = molecular target: T2, Maackia amurensis lectin I (MAA) (Maackia amurensis) (UniProt P0DKL3)
T2 sequence (looked up, limits assumed): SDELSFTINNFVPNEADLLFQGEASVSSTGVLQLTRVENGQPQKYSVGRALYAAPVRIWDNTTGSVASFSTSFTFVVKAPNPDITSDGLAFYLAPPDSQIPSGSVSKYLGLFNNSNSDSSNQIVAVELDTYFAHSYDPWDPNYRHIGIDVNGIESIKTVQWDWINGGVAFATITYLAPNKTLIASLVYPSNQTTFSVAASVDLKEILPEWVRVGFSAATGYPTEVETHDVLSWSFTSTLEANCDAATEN

[3] = molecular target: T3, Ulex europaeus lectin II (UEA-II) (Ulex europaeus) (UniProt P22973)
T3 sequence (looked up, limits assumed): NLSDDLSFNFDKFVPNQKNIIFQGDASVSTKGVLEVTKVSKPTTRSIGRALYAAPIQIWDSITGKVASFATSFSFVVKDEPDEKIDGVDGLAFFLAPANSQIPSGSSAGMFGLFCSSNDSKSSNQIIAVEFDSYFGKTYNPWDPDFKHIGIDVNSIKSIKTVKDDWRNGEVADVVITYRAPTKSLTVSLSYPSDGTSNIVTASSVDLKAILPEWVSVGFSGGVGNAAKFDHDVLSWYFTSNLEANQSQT

[4] = molecular target: T4, Wheat germ agglutinin (WGA) (Triticum vulgaris) (UniProt P10968)
T4 sequence (looked up, limits assumed): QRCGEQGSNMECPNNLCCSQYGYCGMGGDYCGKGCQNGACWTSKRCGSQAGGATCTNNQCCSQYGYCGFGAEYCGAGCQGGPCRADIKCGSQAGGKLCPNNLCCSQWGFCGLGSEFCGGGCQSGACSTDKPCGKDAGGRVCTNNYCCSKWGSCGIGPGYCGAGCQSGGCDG

Measured: binding result

GATCCCAGTCCGAAGTAATCGTTGCATCTGCACGACTGGTGAGCTTGAGTGGCAGAAGAACTTGTGCAAACGGCTATAGG [3-1m]
no binding: all assays above
